Experimental data as given in article PMC7710356, “RNF41 regulates the damage recognition receptor Clec9A and antigen cross-presentation in mouse dendritic cells” (eLife, 2020).
Numbering of substitutions follows the chain as printed. These are yes or no findings as the source states them, for the method shown. Binding seen in cells or lysates may run through a third protein. A result given as binding can be weak or reduced; the word gives no strength.

Chains of the proteins cited; added tags and fusions are not shown. Lines headed by an entry give the natural chain unless they say otherwise; changes in a name come on top.
UniProt Q8BRU4: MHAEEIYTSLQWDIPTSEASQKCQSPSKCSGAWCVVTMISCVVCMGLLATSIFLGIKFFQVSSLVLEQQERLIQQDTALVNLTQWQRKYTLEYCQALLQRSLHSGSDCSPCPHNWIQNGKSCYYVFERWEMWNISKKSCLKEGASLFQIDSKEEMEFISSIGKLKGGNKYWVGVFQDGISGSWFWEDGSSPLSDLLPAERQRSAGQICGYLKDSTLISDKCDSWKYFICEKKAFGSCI

B1: RNF41 (endogenous, mouse cDC1) (enzyme, UniProt Q8BH75 1-317)
chain: MGYDVTRFQGDVDEDLICPICSGVLEEPVQAPHCEHAFCNACITQWFSQQQTCPVDRSVVTVAHLRPVPRIMRNMLSKLQIACDNAVFGCSAVVRLDNLMSHLSDCEHNPKRPVTCEQGCGLEMPKDELPNHNCIKHLRSVVQQQQSRIAELEKTSAEHKHQLAEQKRDIQLLKAYMRAIRSVNPNLQNLEETIEYNEILEWVNSLQPARVTRWGGMISTPDAVLQAVIKRSLVESGCPASIVNELIENAHERSWPQGLATLETRQMNRRYYENYVAKRIPGKQAVVVMACENQHMGDDMVQEPGLVMIFAHGVEEI
B2: Erlin2 (endogenous, MutuDC 1940) (protein, UniProt Q8BFZ9 1-340)
chain: MAQLGAVVAVASSFFCASLFSAVHKIEEGHIGVYYRGGALLTSTSGPGFHLMLPFITSYKSVQTTLQTDEVKNVPCGTSGGVMIYFDRIEVVNFLVPNAVYDIVKNYTADYDKALIFNKIHHELNQFCSVHTLQEVYIELFDQIDENLKLALQQDLTSMAPGLVIQAVRVTKPNIPEAIRRNYELMESEKTKLLIAAQKQKVVEKEAETERKKALIEAEKVAQVAEITYGQKVMEKETEKKISEIEDAAFLAREKAKADAECYTALKIAEANKLKLTPEYLQLMKYKAIASNSKIYFGKDIPNMFMDSAGGLGKQFEGLSDDKLGFGLEDEPLEAPTKEN
B3: Calnexin (endogenous, MutuDC 1940) (protein, UniProt P35564 21-591)
chain: HDGHDDDAIDIEDDLDDVIEEVEDSKSKSDASTPPSPKVTYKAPVPTGEVYFADSFDRGSLSGWILSKAKKDDTDDEIAKYDGKWEVDEMKETKLPGDKGLVLMSRAKHHAISAKLNKPFLFDTKPLIVQYEVNFQNGIECGGAYVKLLSKTAELSLDQFHDKTPYTIMFGPDKCGEDYKLHFIFRHKNPKTGVYEEKHAKRPDADLKTYFTDKKTHLYTLILNPDNSFEILVDQSVVNSGNLLNDMTPPVNPSREIEDPEDRKPEDWDERPKIADPDAVKPDDWDEDAPSKIPDEEATKPEGWLDDEPEYIPDPDAEKPEDWDEDMDGEWEAPQIANPKCESAPGCGVWQRPMIDNPNYKGKWKPPMIDNPNYQGIWKPRKIPNPDFFEDLEPFKMTPFSAIGLELWSMTSDIFFDNFIISGDRRVVDDWANDGWGLKKAADGAAEPGVVLQMLEAAEERPWLWVVYILTVALPVFLVILFCCSGKKQSNAMEYKKTDAPQPDVKDEEGKEEEKNKRDEEEEEEKLEEKQKSDAEEDGVTGSQDEEDSKPKAEEDEILNRSPRNRKPRRE
B4: RNF41 full-length (mammalian expression construct in pcDNA3.1+) (enzyme, UniProt Q9H4P4 1-317)
chain: B1 chain with S147T
B5: Erlin1 (endogenous, 293F cells) (protein, UniProt O75477 1-348)
chain: MNMTQARVLVAAVVGLVAVLLYASIHKIEEGHLAVYYRGGALLTSPSGPGYHIMLPFITTFRSVQTTLQTDEVKNVPCGTSGGVMIYIDRIEVVNMLAPYAVFDIVRNYTADYDKTLIFNKIHHELNQFCSAHTLQEVYIELFDQIDENLKQALQKDLNLMAPGLTIQAVRVTKPKIPEAIRRNFELMEAEKTKLLIAAQKQKVVEKEAETERKKAVIEAEKIAQVAKIRFQQKVMEKETEKRISEIEDAAFLAREKAKADAEYYAAHKYATSNKHKLTPEYLELKKYQAIASNSKIYFGSNIPNMFVDSSCALKYSDIRTGRESSLPSKEALEPSGENVIQNKESTG
B6: Erlin2 (endogenous, 293F cells) (protein, UniProt O94905 1-339)
chain: MAQLGAVVAVASSFFCASLFSAVHKIEEGHIGVYYRGGALLTSTSGPGFHLMLPFITSYKSVQTTLQTDEVKNVPCGTSGGVMIYFDRIEVVNFLVPNAVYDIVKNYTADYDKALIFNKIHHELNQFCSVHTLQEVYIELFDQIDENLKLALQQDLTSMAPGLVIQAVRVTKPNIPEAIRRNYELMESEKTKLLIAAQKQKVVEKEAETERKKALIEAEKVAQVAEITYGQKVMEKETEKKISEIEDAAFLAREKAKADAECYTAMKIAEANKLKLTPEYLQLMKYKAIASNSKIYFGKDIPNMFMDSAGSVSKQFEGLADKLSFGLEDEPLETATKEN

These binders were tested against Clec9A (endogenous, mouse cDC1) (mouse (endogenous in MutuDC 1940 and spleen cDC1)) (assay: proximity ligation; Duolink PLA on fixed, permeabilized MutuDC 1940 (and primary spleen cDC1 for RNF41); mouse anti-Clec9A serum against the extracellular domain with rabbit antibody to the partner; steady state, and after culture with dead CHO-K1 cells (4 or 18 hr) and/or MG132 (5 μM)).

binding, binds:
B1
B2
B3

The binders below were run against FLAG-tagged full length mouse Clec9A (mClec9A-FLAG) (mouse) (UniProt Q8BRU4) (assay: co-IP; 293F cells co-transfected with mClec9A-FLAG and RNF41, RNF41-ΔRING, Ub-Myc or vector; lysis in 1% Triton X-100, 150 mM NaCl, 1 mM EDTA, 50 mM Tris pH 6.0-7.5; IP with anti-FLAG M2 affinity gel; western blot).

binding, binds:
B4
B5
B6
